Test results as given in PMC6284737.
Results are given in words; binding and its absence hold for the method and conditions named. In cells and extracts the contact can be indirect. Some binding calls cover weakened binding; strength is not graded here.

Amino acid sequences for entries named in this document (tags omitted). A change or cut given only in a name is not applied to a line headed by its entry. Chains listed by the source or under a name are the forms on record and can include a tag or linker.
UniProt Q92731: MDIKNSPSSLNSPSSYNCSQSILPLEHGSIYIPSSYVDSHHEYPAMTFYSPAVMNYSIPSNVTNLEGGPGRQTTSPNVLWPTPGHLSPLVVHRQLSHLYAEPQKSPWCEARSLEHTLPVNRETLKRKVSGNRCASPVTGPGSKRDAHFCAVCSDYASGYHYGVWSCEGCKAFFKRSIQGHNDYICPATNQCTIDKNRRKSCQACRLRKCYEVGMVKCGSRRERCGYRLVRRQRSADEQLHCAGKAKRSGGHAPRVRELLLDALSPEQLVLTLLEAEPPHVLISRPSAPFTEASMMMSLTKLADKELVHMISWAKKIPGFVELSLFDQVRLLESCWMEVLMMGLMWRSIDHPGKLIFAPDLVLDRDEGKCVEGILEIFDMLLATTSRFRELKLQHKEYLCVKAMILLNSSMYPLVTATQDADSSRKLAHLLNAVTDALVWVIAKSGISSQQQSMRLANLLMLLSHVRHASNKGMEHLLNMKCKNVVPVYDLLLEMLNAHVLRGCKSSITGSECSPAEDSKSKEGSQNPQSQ
estrogen receptor β2 (B7TEV-ERβ2) (Q92731, form named): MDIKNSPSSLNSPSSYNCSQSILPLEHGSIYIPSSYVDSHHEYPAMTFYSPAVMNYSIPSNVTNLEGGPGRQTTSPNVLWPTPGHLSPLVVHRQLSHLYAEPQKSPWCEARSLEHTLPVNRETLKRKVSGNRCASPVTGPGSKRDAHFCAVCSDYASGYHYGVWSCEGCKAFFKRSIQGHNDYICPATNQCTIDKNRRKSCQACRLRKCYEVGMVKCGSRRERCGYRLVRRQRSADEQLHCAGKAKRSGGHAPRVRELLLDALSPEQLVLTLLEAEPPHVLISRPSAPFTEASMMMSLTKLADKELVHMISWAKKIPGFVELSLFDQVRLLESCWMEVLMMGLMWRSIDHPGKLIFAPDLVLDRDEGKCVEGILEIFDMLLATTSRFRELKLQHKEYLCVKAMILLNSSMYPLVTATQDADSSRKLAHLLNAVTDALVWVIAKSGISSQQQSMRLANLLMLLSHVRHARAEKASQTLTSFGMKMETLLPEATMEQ
UniProt P03372: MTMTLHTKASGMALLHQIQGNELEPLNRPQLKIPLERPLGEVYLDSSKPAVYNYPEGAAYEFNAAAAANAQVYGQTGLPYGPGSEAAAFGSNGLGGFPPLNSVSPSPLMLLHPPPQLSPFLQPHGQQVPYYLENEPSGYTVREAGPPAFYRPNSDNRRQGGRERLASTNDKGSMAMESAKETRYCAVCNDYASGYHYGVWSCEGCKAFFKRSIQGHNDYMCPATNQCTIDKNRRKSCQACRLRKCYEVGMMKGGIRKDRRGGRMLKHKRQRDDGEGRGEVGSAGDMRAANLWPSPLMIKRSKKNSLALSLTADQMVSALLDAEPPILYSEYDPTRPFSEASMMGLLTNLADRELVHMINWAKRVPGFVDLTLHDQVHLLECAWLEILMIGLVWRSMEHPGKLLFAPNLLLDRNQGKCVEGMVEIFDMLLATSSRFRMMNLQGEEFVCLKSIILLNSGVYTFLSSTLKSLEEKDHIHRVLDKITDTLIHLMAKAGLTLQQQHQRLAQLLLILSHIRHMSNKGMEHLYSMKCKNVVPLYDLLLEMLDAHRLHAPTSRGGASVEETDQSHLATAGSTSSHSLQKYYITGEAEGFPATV
UniProt Q16665: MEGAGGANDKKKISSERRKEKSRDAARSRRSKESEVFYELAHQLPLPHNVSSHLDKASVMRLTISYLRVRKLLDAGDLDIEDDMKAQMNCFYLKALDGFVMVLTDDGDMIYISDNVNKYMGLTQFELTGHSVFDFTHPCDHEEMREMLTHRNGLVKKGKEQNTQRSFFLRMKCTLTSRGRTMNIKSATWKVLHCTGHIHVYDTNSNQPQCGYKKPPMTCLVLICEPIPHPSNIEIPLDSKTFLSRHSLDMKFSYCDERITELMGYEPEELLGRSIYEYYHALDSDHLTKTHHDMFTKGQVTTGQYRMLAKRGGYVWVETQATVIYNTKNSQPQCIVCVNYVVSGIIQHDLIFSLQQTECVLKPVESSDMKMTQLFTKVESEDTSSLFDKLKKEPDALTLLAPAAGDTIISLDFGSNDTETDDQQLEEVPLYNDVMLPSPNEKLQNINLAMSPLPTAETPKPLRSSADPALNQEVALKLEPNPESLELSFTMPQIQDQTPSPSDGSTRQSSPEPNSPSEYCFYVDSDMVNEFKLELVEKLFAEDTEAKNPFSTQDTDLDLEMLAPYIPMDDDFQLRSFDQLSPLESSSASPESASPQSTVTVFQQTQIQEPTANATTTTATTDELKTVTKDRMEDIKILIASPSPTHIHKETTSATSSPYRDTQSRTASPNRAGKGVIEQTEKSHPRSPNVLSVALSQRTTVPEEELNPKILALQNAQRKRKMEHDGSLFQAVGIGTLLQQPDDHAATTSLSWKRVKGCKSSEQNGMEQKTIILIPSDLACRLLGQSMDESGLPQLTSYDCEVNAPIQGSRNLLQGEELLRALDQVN
UniProt Q99814: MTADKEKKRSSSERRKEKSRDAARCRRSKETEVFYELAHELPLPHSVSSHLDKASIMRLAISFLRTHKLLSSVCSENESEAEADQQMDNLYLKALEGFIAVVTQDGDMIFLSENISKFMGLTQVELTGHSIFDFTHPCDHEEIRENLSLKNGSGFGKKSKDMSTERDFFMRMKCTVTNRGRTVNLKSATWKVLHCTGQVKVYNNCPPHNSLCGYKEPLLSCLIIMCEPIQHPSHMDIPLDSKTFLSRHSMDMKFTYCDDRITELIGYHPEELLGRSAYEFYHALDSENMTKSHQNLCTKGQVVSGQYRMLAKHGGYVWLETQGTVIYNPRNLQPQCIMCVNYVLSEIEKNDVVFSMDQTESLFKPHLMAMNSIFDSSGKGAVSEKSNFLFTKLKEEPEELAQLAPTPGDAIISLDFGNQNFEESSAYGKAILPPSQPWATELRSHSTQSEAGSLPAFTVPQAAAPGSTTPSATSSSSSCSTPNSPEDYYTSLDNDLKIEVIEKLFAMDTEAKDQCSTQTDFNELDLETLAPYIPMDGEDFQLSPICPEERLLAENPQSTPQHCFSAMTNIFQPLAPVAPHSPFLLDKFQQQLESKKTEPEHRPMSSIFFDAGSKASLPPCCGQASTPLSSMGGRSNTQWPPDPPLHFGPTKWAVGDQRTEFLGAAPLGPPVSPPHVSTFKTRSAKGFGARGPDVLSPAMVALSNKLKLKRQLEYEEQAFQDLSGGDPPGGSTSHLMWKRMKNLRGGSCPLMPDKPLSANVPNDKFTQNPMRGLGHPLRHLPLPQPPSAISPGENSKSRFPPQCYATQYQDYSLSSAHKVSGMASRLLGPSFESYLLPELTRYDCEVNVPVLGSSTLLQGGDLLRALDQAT

How the values were obtained:
Experiment in all cases: pull-down; PC3 cells co-transfected with biotinylation-consensus-tagged receptor, BirA and HA-HIF-1α or HA-HIF-2α; extract in NETN (20 mM Tris pH 8.0, 100 mM NaCl, 1 mM EDTA, 0.5% Nonidet P-40); biotinylated receptors held on streptavidin magnetic beads for 2 hours in the cold room, 3 x 10 min washes; HIF detected by Western blot (the legend calls it co-immunoprecipitation)
[1] = target: estrogen receptor β2 (B7TEV-ERβ2) (UniProt Q92731)
[2] = target: estrogen receptor α (B7TEV-ERα) (UniProt P03372)
[3] = target: estrogen receptor β1 (B7TEV-ERβ1) (UniProt Q92731)

Row | binding [1] | binding [2] | binding [3] | Substance
1 | binds | – | – | HIF-1α (pcDNA3 HA-HIF-1α) (from UniProt Q16665 1-826)
2 | binds | no binding | binds | HIF-2α (pcDNA3 HA-HIF-2α) (from UniProt Q99814 1-870)
